For at least one entry, the source does not settle the construct or the ends of the probe. Where cells or extracts were used, other partners may take part. No signal at the amounts used counts as a negative. Tags and fusion partners may be left off the protein sequences shown.
Molecular target: T1, PPARαb (ToPPARαb) (Trachinotus ovatus) (UniProt A0A3G2KY74)
T1 sequence (looked up, limits assumed): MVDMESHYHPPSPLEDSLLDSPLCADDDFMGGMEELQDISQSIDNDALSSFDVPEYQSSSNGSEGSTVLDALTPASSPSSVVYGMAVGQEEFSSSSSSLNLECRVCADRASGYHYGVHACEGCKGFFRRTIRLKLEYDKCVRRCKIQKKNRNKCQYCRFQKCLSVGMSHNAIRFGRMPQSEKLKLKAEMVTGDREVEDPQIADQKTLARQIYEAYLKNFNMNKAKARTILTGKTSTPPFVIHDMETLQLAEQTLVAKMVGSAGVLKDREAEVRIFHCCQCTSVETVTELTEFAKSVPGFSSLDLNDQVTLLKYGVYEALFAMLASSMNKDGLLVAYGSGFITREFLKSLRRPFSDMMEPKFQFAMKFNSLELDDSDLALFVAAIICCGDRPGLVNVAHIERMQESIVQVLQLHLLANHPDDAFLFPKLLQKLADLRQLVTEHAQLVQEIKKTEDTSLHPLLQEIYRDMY
Test: EMSA
Settings: EMSA/Gel-Shift Kit (Beyotime) buffer, 25 °C, nondenaturing 4% PAGE, salt and pH not stated, protein in a lysate after overexpression, protein details: Flag (pcDNA3.1-Flag), label: biotin

Row | Sequence | binding result (blocked by 100x unlabeled WT probe) | binding result
1 | ATGCTAACTTTGACCTGTGGACTGTGC (double strand) [Fads6-WT (M2 site)] | binds | –
2 | ACCTGGGTCAACTGGCTGAACACGTAG (double strand) [Fads6-MT (mutated M2)] | – | no binding

Source: PMC6337163, “Identification of Fatty Acid Desaturase 6 in Golden Pompano Trachinotus Ovatus (Linnaeus 1758) and Its Regulation by the PPARαb Transcription Factor” (International Journal of Molecular Sciences, 2018)
